Experimental data as given in patent publication US12514943B2 (priority 2020, dated 2026).

Experiment: Effect of limiting decrease in durability of synthetic adhesives, overall determination
Conditions: 40° C., 16 hours

| Compound | limiting a decrease in durability of synthetic adhesives (in words) |
| --- | --- |
| O=P([O-])([O-])O.[K+].[K+] [dipotassium hydrogen phosphate] | had no action of limiting a decrease in durability |
| O=P([O-])([O-])[O-].[Na+].[Na+].[Na+] [trisodium phosphate] | had no action of limiting a decrease in durability |

Some compounds share one wording; it may come from a single statement.
